The list shows a part of the results. Small differences around the control level are noise.
Compound: CN[C@@H]1C[C@H]2O[C@@](C)([C@@H]1OC)n1c3ccccc3c3c4c(c5c6ccccc6n2c5c31)C(=O)NC4 [staurosporine]
Test: log2 fold change of tryptic peptide abundance, ligand vs vehicle (limited proteolysis) (log2 ratio); higher = more trypsin-susceptible (destabilized)
Conditions: ligand concentration: 20 uM; sample: mouse liver crude lysate; replicate design: treated separately

Chains of the proteins cited; added tags and fusions are not shown. Lines headed by an entry give the natural chain unless they say otherwise; changes in a name come on top.
UniProt Q5SS90: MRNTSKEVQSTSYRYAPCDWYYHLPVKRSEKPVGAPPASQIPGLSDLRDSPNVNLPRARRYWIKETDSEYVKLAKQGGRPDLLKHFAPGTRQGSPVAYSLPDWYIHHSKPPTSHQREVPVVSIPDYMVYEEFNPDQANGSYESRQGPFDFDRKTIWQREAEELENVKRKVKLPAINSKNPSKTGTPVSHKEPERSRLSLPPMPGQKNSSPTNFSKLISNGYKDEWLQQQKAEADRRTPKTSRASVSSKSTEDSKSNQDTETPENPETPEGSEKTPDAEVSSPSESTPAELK
UniProt Q5FWI3: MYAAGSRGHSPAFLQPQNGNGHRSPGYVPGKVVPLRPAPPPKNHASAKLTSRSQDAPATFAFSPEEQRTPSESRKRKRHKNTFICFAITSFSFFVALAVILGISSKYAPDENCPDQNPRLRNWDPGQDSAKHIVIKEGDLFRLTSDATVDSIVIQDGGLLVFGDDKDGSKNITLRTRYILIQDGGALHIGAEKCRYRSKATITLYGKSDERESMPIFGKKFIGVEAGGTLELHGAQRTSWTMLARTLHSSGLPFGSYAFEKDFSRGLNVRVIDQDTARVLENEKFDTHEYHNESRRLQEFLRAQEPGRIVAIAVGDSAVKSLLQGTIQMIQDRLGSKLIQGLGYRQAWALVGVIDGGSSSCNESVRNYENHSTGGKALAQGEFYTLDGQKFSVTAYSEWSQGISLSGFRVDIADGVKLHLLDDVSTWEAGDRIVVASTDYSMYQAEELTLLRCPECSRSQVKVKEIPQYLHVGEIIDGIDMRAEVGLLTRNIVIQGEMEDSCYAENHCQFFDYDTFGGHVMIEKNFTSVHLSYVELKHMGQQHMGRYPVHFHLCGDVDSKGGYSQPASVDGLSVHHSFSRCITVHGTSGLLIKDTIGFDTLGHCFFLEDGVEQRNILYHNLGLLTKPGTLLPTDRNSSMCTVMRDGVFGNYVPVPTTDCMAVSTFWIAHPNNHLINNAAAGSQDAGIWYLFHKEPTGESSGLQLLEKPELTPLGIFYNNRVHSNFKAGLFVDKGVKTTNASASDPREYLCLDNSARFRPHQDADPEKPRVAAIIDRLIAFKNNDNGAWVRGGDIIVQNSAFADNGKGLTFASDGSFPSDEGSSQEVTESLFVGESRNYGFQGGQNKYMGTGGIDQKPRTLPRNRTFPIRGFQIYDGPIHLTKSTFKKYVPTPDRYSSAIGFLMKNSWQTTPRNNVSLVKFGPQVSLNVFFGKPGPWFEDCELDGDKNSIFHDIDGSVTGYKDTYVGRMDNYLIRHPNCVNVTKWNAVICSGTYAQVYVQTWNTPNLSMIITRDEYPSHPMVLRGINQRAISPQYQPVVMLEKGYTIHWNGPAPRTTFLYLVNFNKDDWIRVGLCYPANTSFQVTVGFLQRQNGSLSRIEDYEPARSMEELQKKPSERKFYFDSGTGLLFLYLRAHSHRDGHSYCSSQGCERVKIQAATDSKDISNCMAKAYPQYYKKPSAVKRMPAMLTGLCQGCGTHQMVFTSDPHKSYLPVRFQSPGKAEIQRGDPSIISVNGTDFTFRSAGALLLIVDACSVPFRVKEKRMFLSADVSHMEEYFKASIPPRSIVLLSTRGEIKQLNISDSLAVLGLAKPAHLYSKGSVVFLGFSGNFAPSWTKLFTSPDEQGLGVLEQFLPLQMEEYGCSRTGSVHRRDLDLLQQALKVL
UniProt Q60760: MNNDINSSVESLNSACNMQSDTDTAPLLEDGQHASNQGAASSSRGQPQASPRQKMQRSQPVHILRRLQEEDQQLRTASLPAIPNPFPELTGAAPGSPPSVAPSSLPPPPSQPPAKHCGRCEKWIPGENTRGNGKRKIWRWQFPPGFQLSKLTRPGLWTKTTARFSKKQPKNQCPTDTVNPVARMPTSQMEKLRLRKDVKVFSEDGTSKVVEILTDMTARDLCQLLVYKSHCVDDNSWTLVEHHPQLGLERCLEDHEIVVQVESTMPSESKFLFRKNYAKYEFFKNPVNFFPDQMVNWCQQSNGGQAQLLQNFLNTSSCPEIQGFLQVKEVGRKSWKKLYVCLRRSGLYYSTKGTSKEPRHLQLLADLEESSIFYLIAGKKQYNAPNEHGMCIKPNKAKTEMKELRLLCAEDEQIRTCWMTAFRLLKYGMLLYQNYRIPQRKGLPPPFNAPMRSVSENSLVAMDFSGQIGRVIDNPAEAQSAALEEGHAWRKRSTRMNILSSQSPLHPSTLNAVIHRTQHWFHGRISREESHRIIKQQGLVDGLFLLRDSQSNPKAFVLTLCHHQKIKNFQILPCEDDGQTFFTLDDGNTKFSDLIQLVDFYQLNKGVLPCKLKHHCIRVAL
UniProt Q5M8N0: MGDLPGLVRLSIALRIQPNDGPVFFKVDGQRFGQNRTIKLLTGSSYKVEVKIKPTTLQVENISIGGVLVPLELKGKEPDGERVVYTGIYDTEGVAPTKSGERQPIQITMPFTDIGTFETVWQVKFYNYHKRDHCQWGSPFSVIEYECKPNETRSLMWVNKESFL
UniProt Q5HZI1: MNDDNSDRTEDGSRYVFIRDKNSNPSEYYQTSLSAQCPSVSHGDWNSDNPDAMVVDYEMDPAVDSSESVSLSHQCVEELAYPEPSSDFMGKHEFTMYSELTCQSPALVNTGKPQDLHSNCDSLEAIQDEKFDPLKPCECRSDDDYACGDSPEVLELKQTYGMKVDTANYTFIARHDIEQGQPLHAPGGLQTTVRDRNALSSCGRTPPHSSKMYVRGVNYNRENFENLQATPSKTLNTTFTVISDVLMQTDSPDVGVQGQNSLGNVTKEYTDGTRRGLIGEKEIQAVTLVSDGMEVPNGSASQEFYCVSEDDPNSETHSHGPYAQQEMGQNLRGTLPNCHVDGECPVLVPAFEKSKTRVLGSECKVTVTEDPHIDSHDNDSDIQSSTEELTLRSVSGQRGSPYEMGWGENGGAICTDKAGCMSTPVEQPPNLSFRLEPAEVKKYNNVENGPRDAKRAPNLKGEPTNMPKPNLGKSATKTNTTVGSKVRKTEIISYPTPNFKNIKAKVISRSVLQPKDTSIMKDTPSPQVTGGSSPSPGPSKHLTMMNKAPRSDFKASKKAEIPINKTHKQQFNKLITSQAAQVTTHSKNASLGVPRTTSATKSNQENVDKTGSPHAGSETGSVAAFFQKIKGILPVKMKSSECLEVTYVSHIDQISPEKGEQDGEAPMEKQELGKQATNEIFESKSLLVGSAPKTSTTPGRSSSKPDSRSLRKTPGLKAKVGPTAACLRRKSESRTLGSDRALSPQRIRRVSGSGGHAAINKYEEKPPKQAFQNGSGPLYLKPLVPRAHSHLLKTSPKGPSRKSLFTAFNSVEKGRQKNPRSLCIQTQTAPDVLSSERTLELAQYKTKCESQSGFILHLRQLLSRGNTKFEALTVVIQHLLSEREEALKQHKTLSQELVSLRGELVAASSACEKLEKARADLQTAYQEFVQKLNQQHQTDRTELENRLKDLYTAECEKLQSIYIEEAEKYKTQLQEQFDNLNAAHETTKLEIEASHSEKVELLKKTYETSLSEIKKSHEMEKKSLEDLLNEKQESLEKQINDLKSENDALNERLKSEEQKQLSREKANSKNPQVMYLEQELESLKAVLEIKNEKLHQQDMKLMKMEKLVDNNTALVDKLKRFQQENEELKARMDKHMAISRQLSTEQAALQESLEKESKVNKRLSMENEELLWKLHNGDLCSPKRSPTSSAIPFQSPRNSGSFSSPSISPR
UniProt Q5U4D9: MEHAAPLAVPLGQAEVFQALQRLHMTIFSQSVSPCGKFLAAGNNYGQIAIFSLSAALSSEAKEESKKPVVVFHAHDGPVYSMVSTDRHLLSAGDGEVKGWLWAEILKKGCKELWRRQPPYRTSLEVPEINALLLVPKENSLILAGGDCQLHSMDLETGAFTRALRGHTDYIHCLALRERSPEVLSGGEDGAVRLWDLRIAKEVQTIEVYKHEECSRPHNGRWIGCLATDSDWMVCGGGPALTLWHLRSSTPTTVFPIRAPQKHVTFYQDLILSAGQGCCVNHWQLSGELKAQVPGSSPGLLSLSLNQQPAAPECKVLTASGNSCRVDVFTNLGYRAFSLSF
UniProt Q60738: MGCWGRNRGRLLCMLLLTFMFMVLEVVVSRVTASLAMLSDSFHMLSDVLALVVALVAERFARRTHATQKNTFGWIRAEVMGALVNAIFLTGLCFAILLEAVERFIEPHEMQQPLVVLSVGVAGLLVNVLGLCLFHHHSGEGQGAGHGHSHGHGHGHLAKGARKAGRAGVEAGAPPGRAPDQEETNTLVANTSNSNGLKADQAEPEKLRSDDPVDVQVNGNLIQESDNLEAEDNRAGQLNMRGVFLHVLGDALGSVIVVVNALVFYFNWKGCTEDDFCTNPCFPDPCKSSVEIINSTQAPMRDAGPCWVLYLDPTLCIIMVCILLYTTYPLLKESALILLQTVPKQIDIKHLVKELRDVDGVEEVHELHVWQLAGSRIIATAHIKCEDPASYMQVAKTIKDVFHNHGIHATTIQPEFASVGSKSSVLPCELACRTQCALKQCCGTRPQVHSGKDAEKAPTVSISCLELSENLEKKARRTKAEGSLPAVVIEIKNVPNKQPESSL
UniProt Q5HZI9: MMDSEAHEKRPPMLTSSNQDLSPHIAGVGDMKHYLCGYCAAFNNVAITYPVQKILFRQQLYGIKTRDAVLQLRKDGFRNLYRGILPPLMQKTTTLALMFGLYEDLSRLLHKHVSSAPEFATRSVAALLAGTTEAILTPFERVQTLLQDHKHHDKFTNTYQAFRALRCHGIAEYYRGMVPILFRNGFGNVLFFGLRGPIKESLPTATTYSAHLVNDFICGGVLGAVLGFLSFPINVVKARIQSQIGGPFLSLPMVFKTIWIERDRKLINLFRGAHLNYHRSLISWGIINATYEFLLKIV
UniProt Q61164: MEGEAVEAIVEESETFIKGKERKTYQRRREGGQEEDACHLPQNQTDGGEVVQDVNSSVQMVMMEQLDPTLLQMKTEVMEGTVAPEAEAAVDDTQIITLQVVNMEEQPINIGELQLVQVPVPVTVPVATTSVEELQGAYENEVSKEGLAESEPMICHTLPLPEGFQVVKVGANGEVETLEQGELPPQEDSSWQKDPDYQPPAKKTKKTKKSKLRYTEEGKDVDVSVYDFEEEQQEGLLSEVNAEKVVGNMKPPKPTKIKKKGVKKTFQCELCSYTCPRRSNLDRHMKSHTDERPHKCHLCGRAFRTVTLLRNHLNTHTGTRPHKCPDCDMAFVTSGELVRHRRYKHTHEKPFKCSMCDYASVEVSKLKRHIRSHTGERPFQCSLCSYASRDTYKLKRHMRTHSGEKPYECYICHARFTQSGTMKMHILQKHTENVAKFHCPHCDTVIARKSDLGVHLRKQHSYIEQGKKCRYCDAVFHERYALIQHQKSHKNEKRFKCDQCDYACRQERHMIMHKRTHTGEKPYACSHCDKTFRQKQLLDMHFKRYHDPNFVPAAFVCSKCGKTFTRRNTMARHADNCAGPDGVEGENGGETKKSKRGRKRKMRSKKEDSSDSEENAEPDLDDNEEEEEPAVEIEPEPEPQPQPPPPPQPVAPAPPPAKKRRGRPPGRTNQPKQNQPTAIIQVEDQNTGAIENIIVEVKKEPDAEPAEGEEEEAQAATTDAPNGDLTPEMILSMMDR
UniProt Q61286: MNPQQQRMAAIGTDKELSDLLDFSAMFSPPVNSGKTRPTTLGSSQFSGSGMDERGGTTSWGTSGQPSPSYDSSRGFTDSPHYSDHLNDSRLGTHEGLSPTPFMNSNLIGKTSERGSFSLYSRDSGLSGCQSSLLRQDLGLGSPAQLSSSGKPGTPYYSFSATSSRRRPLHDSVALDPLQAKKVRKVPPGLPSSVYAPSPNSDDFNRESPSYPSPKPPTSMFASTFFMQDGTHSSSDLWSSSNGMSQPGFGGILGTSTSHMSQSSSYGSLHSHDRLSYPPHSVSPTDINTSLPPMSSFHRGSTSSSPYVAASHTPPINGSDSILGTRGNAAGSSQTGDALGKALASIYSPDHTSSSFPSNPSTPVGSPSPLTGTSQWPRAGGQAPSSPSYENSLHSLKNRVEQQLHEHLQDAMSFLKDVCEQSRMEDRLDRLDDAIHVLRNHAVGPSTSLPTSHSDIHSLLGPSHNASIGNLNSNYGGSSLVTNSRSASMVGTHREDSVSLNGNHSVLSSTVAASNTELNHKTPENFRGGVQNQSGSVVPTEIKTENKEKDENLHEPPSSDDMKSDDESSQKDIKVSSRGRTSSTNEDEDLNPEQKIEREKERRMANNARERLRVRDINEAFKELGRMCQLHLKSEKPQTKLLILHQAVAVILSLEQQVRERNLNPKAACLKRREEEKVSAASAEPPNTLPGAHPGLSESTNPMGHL
UniProt Q60692: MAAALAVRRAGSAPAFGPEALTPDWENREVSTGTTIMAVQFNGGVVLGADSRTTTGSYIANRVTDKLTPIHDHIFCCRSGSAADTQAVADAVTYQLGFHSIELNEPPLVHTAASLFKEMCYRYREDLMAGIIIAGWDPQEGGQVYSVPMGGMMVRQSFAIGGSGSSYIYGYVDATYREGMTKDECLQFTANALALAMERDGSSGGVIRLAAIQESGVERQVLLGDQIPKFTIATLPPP

Target	log2 fold change
UniProt Q60597 (peptide sequence: SSPYPTDVAR, peptide start residue: 457)	-0.205
UniProt Q61097 (peptide sequence: RPWRGPISR, peptide start residue: 536)	-0.103
UniProt Q5SS90 (peptide sequence: LISNGYKDEWLQQQK, peptide start residue: 216)	-0.273
UniProt Q5FWI3 (peptide sequence: VVPLRPAPPPK, peptide start residue: 32)	0.48
UniProt Q5SSM3 (peptide sequence: QLANQTVGR, peptide start residue: 10)	-0.0211
UniProt Q60760 (peptide sequence: GVLPCKLK, peptide start residue: 523)	-0.216
UniProt Q5SSZ5 (peptide sequence: DKAPGSFIVR, peptide start residue: 1183)	-0.337
UniProt Q5FW57 (peptide sequence: GYPVYNHTEQTNK, peptide start residue: 258)	0.148
UniProt Q60864 (peptide sequence: HYTEAIK, peptide start residue: 382)	-0.25
UniProt Q61216 (peptide sequence: HIDALEDKIDEEVR, peptide start residue: 490)	-0.269
UniProt Q5M8N0 (peptide sequence: IQPNDGPVFFK, peptide start residue: 16)	0.158
UniProt Q5HZH2 (peptide sequence: LDDTPFQK, peptide start residue: 129)	0.103
UniProt Q5HZI1 (peptide sequence: LEPAEVKK, peptide start residue: 435)	-0.201
UniProt Q5FWK3 (peptide sequence: HQIVEVAGDDKYGR, peptide start residue: 70)	-0.395
UniProt Q5QGU6 (peptide sequence: VNPQTSNPTK, peptide start residue: 281)	-0.387
UniProt Q5SSL4 (peptide sequence: STLVLHDLLK, peptide start residue: 652)	0.0887
UniProt Q5U464 (peptide sequence: RHIPVGLVEGDGSK, peptide start residue: 878)	0.733
UniProt Q5SQF8 (peptide sequence: NFIQSVR, peptide start residue: 78)	0.147

Target	log2 fold change
UniProt Q61084 (peptide sequence: YHVSVHHK, peptide start residue: 279)	0.953
UniProt Q5SWT3 (peptide sequence: LYNQPTDTR, peptide start residue: 233)	0.303
UniProt Q5U4D9 (peptide sequence: GHTDYIHCLALR, peptide start residue: 166)	0.284
UniProt Q60664 (peptide sequence: AVEVMIQHVENLKR, peptide start residue: 294)	-0.292
UniProt Q5NCS9 (peptide sequence: VLLELLRK, peptide start residue: 253)	-0.0274
UniProt Q5Y5T1 (peptide sequence: SIGSNQPFPIKPLSESK, peptide start residue: 330)	0.323
UniProt Q60738 (peptide sequence: DAEKAPTVSISCLELSENLEKK, peptide start residue: 453)	-0.21
UniProt Q5HZI9 (peptide sequence: MMDSEAHEK, peptide start residue: 1)	-0.322
UniProt Q61164 (peptide sequence: SDLGVHLRK, peptide start residue: 450)	0.276
UniProt Q61165 (peptide sequence: ITNYLTVPAHK, peptide start residue: 684)	0.228
UniProt Q60866 (peptide sequence: RVHFLVDEGYEDR, peptide start residue: 280)	-0.68
UniProt Q5UAK0 (peptide sequence: YNLHPGVTDYMDR, peptide start residue: 349)	0.269
UniProt Q60596 (peptide sequence: HFFLYGEFPGDER, peptide start residue: 545)	0.546
UniProt Q61146 (peptide sequence: SKLSHIKR, peptide start residue: 504)	1.35
UniProt Q5SFM8 (peptide sequence: LQLGTPPPLLAAR, peptide start residue: 443)	0.132
UniProt Q61286 (peptide sequence: RRPLHDSVALDPLQAK, peptide start residue: 166)	0.534
UniProt Q60692 (peptide sequence: VTDKLTPIHDHIFCCR, peptide start residue: 63)	0.162

Look-ups from the entries so far:
Value of UniProt Q60866 (peptide sequence: RVHFLVDEGYEDR, peptide start residue: 280) under log2 fold change: -0.68
Value of UniProt Q60738 (peptide sequence: DAEKAPTVSISCLELSENLEKK, peptide start residue: 453) under log2 fold change: -0.21

Reference: the supplement of paper PMC12819154, “High-throughput peptide-centric local stability assay extends protein–ligand identification to membrane proteins, tissues and bacteria” (Nature Structural & Molecular Biology, 2025)
